Positions count from the first letter of the chain named. In names and notes the source's numbering stands. No constants are given. Whether binding was seen depends on the method and setting. In cells and extracts the contact can be indirect. Binding calls can cover weak binding; strength is not graded here. Where a sequence is shown, tags or fusion partners need not be part of it.
Molecular target: Flag-tagged C-terminal domain of HPV18 E7 (pcDNA3-Flag) (human papillomavirus 18 (HPV18))
Experiment: co-IP; lysates of HeLa (Fig 5C) or C33a (Fig 5D) cells transiently expressing PTPN14 and Flag-tagged HPV18 E7 C-terminal constructs for 24 hours; anti-Flag M2 affinity gel; immunoblot

B1: wild-type PTPN14 (pcDNA3-V5-PTPN14-wild type) (protein, UniProt Q15678 1-1187)
chain: MPFGLKLRRTRRYNVLSKNCFVTRIRLLDSNVIECTLSVESTGQECLEAVAQRLELRETHYFGLWFLSKSQQARWVELEKPLKKHLDKFANEPLLFFGVMFYVPNVSWLQQEATRYQYYLQVKKDVLEGRLRCTLDQVIRLAGLAVQADFGDYNQFDSQDFLREYVLFPMDLALEEAVLEELTQKVAQEHKAHSGILPAEAELMYINEVERLDGFGQEIFPVKDNHGNCVHLGIFFMGIFVRNRIGRQAVIYRWNDMGNITHNKSTILVELINKEETALFHTDDIENAKYISRLFATRHKFYKQNKICTEQSNSPPPIRRQPTWSRSSLPRQQPYILPPVHVQCGEHYSETHTSQDSIFHGNEEALYCNSHNSLDLNYLNGTVTNGSVCSVHSVNSLNCSQSFIQASPVSSNLSIPGSDIMRADYIPSHRHSAIIVPSYRPTPDYETVMRQMKRGILHTDSQSQSLRNLNIINTHAYNQPEDLVYSQPEMRERHPYTVPYGPQGVYSNKLVSPSDQRNPKNNVVPSKPGASAISHTVSTPELANMQLQGSHNYSTAHMLKNYLFRPPPPYPRPRPATSTPDLASHRHKYVSGSSPDLVTRKVQLSVKTFQEDSSPVVHQSLQEVSEPLTATKHHGTVNKRHSLEVMNSMVRGMEAMTLKSLHLPMARRNTLREQGPPEEGSGSHEVPQLPQYHHKKTFSDATMLIHSSESEEEEEEAPESVPQIPMLREKMEYSAQLQAALARIPNKPPPEYPGPRKSVSNGALRQDQASLPPAMARARVLRHGPAKAISMSRTDPPAVNGASLGPSISEPDLTSVKERVKKEPVKERPVSEMFSLEDSIIEREMMIRNLEKQKMAGLEAQKRPLMLAALNGLSVARVSGREENRVDATRVPMDERFRTLKKKLEEGMVFTEYEQIPKKKANGIFSTAALPENAERSRIREVVPYEENRVELIPTKENNTGYINASHIKVVVGGAEWHYIATQGPLPHTCHDFWQMVWEQGVNVIAMVTAEEEGGRTKSHRYWPKLGSKHSSATYGKFKVTTKFRTDSVCYATTGLKVKHLLSGQERTVWHLQYTDWPDHGCPEDVQGFLSYLEEIQSVRRHTNSMLEGTKNRHPPIVVHCSAGVGRTGVLILSELMIYCLEHNEKVEVPMMLRLLREQRMFMIQTIAQYKFVYQVLIQFLQNSRLI
- binding: binds

B2: PTPN14 construct containing F1044S∙G1055Q∙E1095A mutations (cellular) (protein, UniProt Q15678 1-1187)
chain: B1 chain with F1044S, G1055Q, E1095A
- binding: no binding

From publication PMC6668832, “Structural basis for recognition of the tumor suppressor protein PTPN14 by the oncoprotein E7 of human papillomavirus” (PLoS Biology, 2019)
